# Values quoted from earlier work, collected in patent publication US11896678B2, “Compositions and methods for treatment of peroxisome proliferator-activated receptor gamma (PPARG) activated cancer” (THE BROAD INSTITUTE, INC., priority 2017, dated 2024).
# At least one compound was matched to its structure with a doubt left.
# System: rat urothelial cells
# Conditions: primary culture; cited from earlier work
smiles,measurement,value
CN(CCOc1ccc(CC2SC(=O)NC2=O)cc1)c1ccccn1 (stereo not shown) [rosiglitazone],"expression of urothelial differentiation markers (UPK1A, UPK1B, and KRT20)",induces the expression of urothelial differentiation markers
